For experiment [1], the target named is T1, HA::RNP-6 (C. elegans) (UniProt Q9N3S4).
T1 sequence: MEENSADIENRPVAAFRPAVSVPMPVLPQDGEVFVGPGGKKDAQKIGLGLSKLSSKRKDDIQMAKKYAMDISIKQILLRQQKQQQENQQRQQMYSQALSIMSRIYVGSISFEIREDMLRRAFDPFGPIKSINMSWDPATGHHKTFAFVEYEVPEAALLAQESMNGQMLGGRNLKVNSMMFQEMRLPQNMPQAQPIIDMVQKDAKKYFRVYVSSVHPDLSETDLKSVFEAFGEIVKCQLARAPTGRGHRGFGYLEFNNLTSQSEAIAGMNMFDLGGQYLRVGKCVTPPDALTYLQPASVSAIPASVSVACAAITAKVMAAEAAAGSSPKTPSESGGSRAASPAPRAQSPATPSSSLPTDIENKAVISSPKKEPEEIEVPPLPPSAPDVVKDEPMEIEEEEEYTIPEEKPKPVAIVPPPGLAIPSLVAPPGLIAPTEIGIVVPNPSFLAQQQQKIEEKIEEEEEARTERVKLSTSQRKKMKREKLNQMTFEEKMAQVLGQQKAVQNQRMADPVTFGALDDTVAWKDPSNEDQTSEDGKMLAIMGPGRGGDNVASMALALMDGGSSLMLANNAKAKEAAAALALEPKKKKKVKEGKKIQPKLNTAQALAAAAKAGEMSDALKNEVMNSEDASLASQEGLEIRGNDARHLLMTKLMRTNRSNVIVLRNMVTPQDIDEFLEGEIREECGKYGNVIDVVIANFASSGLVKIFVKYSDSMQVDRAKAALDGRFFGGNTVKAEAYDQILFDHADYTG
Description: co-IP; lysates of worms expressing HA::RNP-6, RBM-39::mKate2 or both; 0.5% NP40, 150 mM NaCl, 50 mM Tris pH 7.4; antibodies against mKate2 and HA used for immunoprecipitation and western blot; n = 1. In general terms: Immunoblotting shows a protein as a band on a membrane.

Experiment [2] addresses T2, RBM-39::mKate2 (C. elegans) (UniProt Q9N368).
T2 sequence: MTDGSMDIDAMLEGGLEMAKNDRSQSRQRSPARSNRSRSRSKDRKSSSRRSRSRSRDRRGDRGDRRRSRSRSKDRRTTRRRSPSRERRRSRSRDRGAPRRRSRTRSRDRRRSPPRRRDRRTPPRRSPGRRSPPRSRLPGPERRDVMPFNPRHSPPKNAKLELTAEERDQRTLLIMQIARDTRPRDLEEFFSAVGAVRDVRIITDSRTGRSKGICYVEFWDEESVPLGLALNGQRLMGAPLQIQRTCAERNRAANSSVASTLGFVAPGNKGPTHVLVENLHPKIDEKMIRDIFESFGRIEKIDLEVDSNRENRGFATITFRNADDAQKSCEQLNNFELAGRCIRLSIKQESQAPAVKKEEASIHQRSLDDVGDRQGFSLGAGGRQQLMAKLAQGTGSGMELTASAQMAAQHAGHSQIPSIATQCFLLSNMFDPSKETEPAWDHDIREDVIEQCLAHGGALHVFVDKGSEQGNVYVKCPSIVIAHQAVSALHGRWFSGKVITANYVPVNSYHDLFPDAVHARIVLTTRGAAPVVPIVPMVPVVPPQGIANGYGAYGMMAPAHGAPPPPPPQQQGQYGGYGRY
The description is as above.

No constants are given. Whether binding was seen depends on the method and setting. Binding seen in cells or lysates may run through a third protein. Some results given as binding are weak or reduced against the parent protein; the word gives no strength. Sequences can lack the tags named with a protein.

B1: RBM-39::mKate2 (protein, UniProt Q9N368 1-580)
chain: MTDGSMDIDAMLEGGLEMAKNDRSQSRQRSPARSNRSRSRSKDRKSSSRRSRSRSRDRRGDRGDRRRSRSRSKDRRTTRRRSPSRERRRSRSRDRGAPRRRSRTRSRDRRRSPPRRRDRRTPPRRSPGRRSPPRSRLPGPERRDVMPFNPRHSPPKNAKLELTAEERDQRTLLIMQIARDTRPRDLEEFFSAVGAVRDVRIITDSRTGRSKGICYVEFWDEESVPLGLALNGQRLMGAPLQIQRTCAERNRAANSSVASTLGFVAPGNKGPTHVLVENLHPKIDEKMIRDIFESFGRIEKIDLEVDSNRENRGFATITFRNADDAQKSCEQLNNFELAGRCIRLSIKQESQAPAVKKEEASIHQRSLDDVGDRQGFSLGAGGRQQLMAKLAQGTGSGMELTASAQMAAQHAGHSQIPSIATQCFLLSNMFDPSKETEPAWDHDIREDVIEQCLAHGGALHVFVDKGSEQGNVYVKCPSIVIAHQAVSALHGRWFSGKVITANYVPVNSYHDLFPDAVHARIVLTTRGAAPVVPIVPMVPVVPPQGIANGYGAYGMMAPAHGAPPPPPPQQQGQYGGYGRY
B1: the binding result in experiment [1] was “binds”.

B2: HA::RNP-6 (protein, UniProt Q9N3S4 1-749)
chain: MEENSADIENRPVAAFRPAVSVPMPVLPQDGEVFVGPGGKKDAQKIGLGLSKLSSKRKDDIQMAKKYAMDISIKQILLRQQKQQQENQQRQQMYSQALSIMSRIYVGSISFEIREDMLRRAFDPFGPIKSINMSWDPATGHHKTFAFVEYEVPEAALLAQESMNGQMLGGRNLKVNSMMFQEMRLPQNMPQAQPIIDMVQKDAKKYFRVYVSSVHPDLSETDLKSVFEAFGEIVKCQLARAPTGRGHRGFGYLEFNNLTSQSEAIAGMNMFDLGGQYLRVGKCVTPPDALTYLQPASVSAIPASVSVACAAITAKVMAAEAAAGSSPKTPSESGGSRAASPAPRAQSPATPSSSLPTDIENKAVISSPKKEPEEIEVPPLPPSAPDVVKDEPMEIEEEEEYTIPEEKPKPVAIVPPPGLAIPSLVAPPGLIAPTEIGIVVPNPSFLAQQQQKIEEKIEEEEEARTERVKLSTSQRKKMKREKLNQMTFEEKMAQVLGQQKAVQNQRMADPVTFGALDDTVAWKDPSNEDQTSEDGKMLAIMGPGRGGDNVASMALALMDGGSSLMLANNAKAKEAAAALALEPKKKKKVKEGKKIQPKLNTAQALAAAAKAGEMSDALKNEVMNSEDASLASQEGLEIRGNDARHLLMTKLMRTNRSNVIVLRNMVTPQDIDEFLEGEIREECGKYGNVIDVVIANFASSGLVKIFVKYSDSMQVDRAKAALDGRFFGGNTVKAEAYDQILFDHADYTG
Turning to B2, in experiment [2], the binding entry is “binds”.
